We go through two molecules from PMC8466936.

Results are given in words; binding and its absence hold for the method and conditions named. Binding seen in cells or lysates may run through a third protein. Some entries that bind do so weakly or less than the wild type. For some assays here: Where a sequence is shown, tags or fusion partners need not be part of it.

Test [1] has as its target FLAG-CHIP Δ278–303 (human) (UniProt Q9UNE7). As to the kind of experiment: co-IP; dimerization assay: SH-SY5Y and BE2-M17 cells co-transfected with CHIP-Myc and FLAG-CHIP WT or mutants for 48 h, NP40 lysis buffer, 1 mg lysate, IP with anti-FLAG or anti-Myc overnight at 4 °C, protein A-Sepharose; blotted with anti-Myc or anti-FLAG.
Test [2] deals with T1, FLAG-CHIP WT (C-terminus of HSC70-interacting protein, encoded by STUB1) (human), Q9UNE7.
T1 chain: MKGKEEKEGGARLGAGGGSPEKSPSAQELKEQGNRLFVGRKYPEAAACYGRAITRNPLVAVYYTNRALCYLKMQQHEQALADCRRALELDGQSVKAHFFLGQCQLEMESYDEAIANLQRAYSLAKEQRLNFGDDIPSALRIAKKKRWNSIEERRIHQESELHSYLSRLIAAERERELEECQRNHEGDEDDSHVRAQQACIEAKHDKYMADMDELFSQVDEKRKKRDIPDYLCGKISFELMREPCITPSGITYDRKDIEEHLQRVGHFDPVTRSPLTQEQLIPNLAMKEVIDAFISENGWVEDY
Described as above. The following applies: remark: other sources report otherwise.

On to “Myc-tagged wild type CHIP (CHIP WT-Myc) (from UniProt Q9UNE7-1 1-303)”, for which the binding result in test [1] is given as “binds”.

B1: Myc-tagged wild type CHIP (CHIP WT-Myc), Q9UNE7-1 1-303 (protein)
chain: T1 chain
As for B1, the binding entry in test [2] is reported as “binds”.
